Measured values reported in patent US20240182551A1.

Biological target: HCoV-229E full-length spike expressed on HEK293T cell surface (HCoV-229E)
Test: CELISA on 293T cells (FIG. 4A); ELISA/BLI (FIG. 12)

Binder	binding
CC9.1 (IgG) (antibody, V domains shown) VH: EVQLVESGGGLVQPGRSLRLSCVAPGFTLGGYGMHWVRQAPGKGLEWVGLISYDGSVQKYGSSVKGRFTISKDNSKNTLYLEMNSLRADDTAVYFCVKGASLGDNWGQGTLVTVSS VL: EIVMTQSPLSLPVTLGQPASISCRSSQSLVYSDGDTYMSWFHQRPGQSPRRLIYKVSNRDSGVPDRFSGSGSGTDFTLKISRVEAEDVGVYYCMQGTHWPYTFGPGTKVEIK	no binding
CC9.2 (IgG) (antibody, V domains shown) VH: EVQLVESGGGLVQPGRSLRLSCVAPGFTLGGYGMHWVRQAPGKGLEWVGLISYDGSVQKYGSSVKGRFTISKDNSKNTLYLEMNSLRADDTAVYFCVKGASLGDNWGQGTLVTVSS VL: EIVMTQSPLSLPVTLGQPASISCRSSQSLVYSDGDTYMSWFHQRPGQSPRRLIYKVSNRDFGVPDRFSGSGSGTDFTLKISRVEAEDVGVYYCMQGTHWPYTFGPGTKVEIK	no binding
CC9.3 (IgG) (antibody, V domains shown) VH: QVQLQESGPGLVKPSETLSLTCTVSGGSIRSDFWSWIRQFPGKGLEWIGYIYYSGSTNYNPSLESRVTISVDTSKNEFSLKLNYVTAADTAIYYCARETRWNWLDSWGQGTLVTVSS VL: DIVMTQSPDSLAVSLGERASINCKSSQTISYISNNKNYLAWYQQKPGQPPRLLIYWASTRESGVPDRFSGGGFGTDFTLTISSLQAEDVAVYYCQQYFNTPWTFGQGTKVEIK	no binding
CC40.5 (IgG) (antibody, V domains shown) VH: EVQLVESGGGVVQPGRSLRLSCVASGFTFSNYGMHWVRQAPGKGLEWVAVMSYDGSVTYYGDSVRGRFTISRDNSKNTLYLQMSSLRTDDTGVYYCAKGQPLDDIWGLGTLVTVSS VL: EIVMTQSPLSLPVSLGQSASISCRSSQSLVHTDGITYLSWFQQRPGQSPRRLLYKVSNRDSGVPDRFSGSGSGTDFTLKISRVEAEDVGVYYCLQGTYWPWTFGQGTKVEIK	no binding
CC40.8 (IgG) (antibody, V domains shown) VH: EVQLLESGGGLVQPGGSLRLSCAASGFTFSSYVMTWARQAPGKGLEWVSAISGTGYTYYADSVKGRFTVSRDNSKNTLFLQMSSLRAEDTAVYYCAITMAPVVWGQGTTVTVSS VL: SYELTQPPSVSVSPGQTARITCSGDALPKRYAYWYQQKSGQAPILVIYEDKKRPSGIPERLSGSKSGTVATLTISGAQVEDEADYYCYSTDSSGNHAVFGGGTQLTVL	no binding

These are yes or no findings as the source states them, for the method shown.
